{"source": "paper PMC4338441", "about": "“Non-catalytic motor domains enable processive movement and functional diversification of the kinesin-14 Kar3” (eLife, 2015)", "molecular_target": "T1, GST-Bim1^FL (budding yeast) (UniProt P40013)", "T1 sequence": "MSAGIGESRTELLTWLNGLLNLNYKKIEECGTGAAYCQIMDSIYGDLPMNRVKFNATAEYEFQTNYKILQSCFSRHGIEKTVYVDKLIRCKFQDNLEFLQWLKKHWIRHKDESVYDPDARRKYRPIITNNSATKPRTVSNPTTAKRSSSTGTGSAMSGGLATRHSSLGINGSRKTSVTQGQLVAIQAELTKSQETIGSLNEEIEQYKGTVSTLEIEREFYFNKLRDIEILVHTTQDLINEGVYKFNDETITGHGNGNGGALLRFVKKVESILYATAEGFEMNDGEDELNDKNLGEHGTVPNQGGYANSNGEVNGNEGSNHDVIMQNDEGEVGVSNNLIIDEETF", "assay": "pull-down; 0.1–1 μM GST-tagged bait immobilised on glutathione sepharose; binding partner at a constant 0.5–1 μM; 25 mM Hepes pH 7.2, 250 mM NaCl, 1 mM MgCl2, 1 mM EGTA, 0.5 mM DTT, 0.05% NP-40; 1 hr at 4°C; SDS-PAGE, Coomassie; both purified", "note": "These are yes or no findings as the source states them, for the method shown. A result given as binding can be weak or reduced; the word gives no strength. Where a sequence is shown, tags or fusion partners need not be part of it."}
{"substance": "Cik1–Kar3 complex with the SxIP motif of Cik1 mutated (S. cerevisiae (S288c))", "values": [{"measurement": "binding", "value": "binds"}]}
